PubChem BioAssay AID652243 – Drosophila RNAi Screening Center – 2013
The screen tested about 24,000 reagents; shown is an unselected part of those with a known target gene and a result. In the full data, 246 (1%) are marked active. 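Plates not normalised; calls are printed but the firefly/Renilla ratio behind them is not deposited; fold cut for lowering reported inconsistently.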 Raw values are not corrected between plates. Reagents against one gene are numbered here. A plus sign joins genes that one reagent is predicted to hit. No sequences are given here. Not given: the amount of reagent.

Screen: 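Knock-downs that decrease or increase androgen receptor reporter signal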 (primary screen)
Cells: Drosophila S2R+ cells
Reagents: long dsRNA against Drosophila genes
Timing: 72 h (48 h, then 24 h hormone)
Treatment: synthetic androgen R1881 at 10 nM for 24 h
Measurement: 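Firefly light from an androgen-responsive reporter and Renilla control light per well, raw and unnormalised, for each of two replicates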
Scale: firefly reporter light: higher = more light from androgen-responsive reporter; Renilla control light: higher = more constitutive control signal (cell number, transfection)
Call rule: 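Hit when the log firefly-to-Renilla ratio dropped or increased by a fixed fold versus the mean of GFP or LacZ controls across duplicate plates; lowering cut given as 1.5 and as 3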
Meaning of the calls: active = hit: reporter lowered or raised; inactive = no hit

| target | dsRNA no. | firefly reporter light, replicate 1 | firefly reporter light, replicate 2 | Renilla control light, replicate 1 | Renilla control light, replicate 2 | outcome |
| --- | --- | --- | --- | --- | --- | --- |
| CG18294 | 1 | 2.40e5 | 1.98e5 | 3.57e6 | 3.35e6 | inactive |
| Psi | 1 | 80225 | 87631 | 1.80e6 | 1.80e6 | inactive |
| Psi | 2 | 4.91e5 | 3.00e5 | 5.72e5 | 6.21e5 | inactive |
| Psi | 3 | 8.20e5 | 8.12e5 | 1.39e6 | 1.67e6 | inactive |
| CG31559 | 1 | 35867 | 57724 | 1.47e6 | 1.52e6 | inactive |
| CG31559 | 2 | 33866 | 46253 | 1.31e6 | 9.84e5 | inactive |
| PhKgamma | 1 | 1.02e5 | 92045 | 1.18e6 | 8.37e5 | inactive |
| PhKgamma | 2 | 2.32e5 | 2.63e5 | 6.57e5 | 7.13e5 | inactive |
| PhKgamma | 3 | – | – | – | – | inactive |

Laid out differently: entries from further up
{"target":"Psi","dsRNA no.":2,"firefly reporter light, replicate 1":4.91e5,"firefly reporter light, replicate 2":3.00e5,"Renilla control light, replicate 1":5.72e5,"Renilla control light, replicate 2":6.21e5,"outcome":"inactive"}
{"target":"Psi","dsRNA no.":3,"firefly reporter light, replicate 1":8.20e5,"firefly reporter light, replicate 2":8.12e5,"Renilla control light, replicate 1":1.39e6,"Renilla control light, replicate 2":1.67e6,"outcome":"inactive"}
{"target":"CG31559","dsRNA no.":1,"firefly reporter light, replicate 1":35867,"firefly reporter light, replicate 2":57724,"Renilla control light, replicate 1":1.47e6,"Renilla control light, replicate 2":1.52e6,"outcome":"inactive"}

Next reagents:
| target | dsRNA no. | firefly reporter light, replicate 1 | firefly reporter light, replicate 2 | Renilla control light, replicate 1 | Renilla control light, replicate 2 | outcome |
| --- | --- | --- | --- | --- | --- | --- |
| Ide | 1 | 32059 | 27483 | 4.64e5 | 4.46e5 | inactive |
| Nep3 | 1 | 1.76e5 | 1.98e5 | 3.13e5 | 2.60e5 | inactive |
| Nep3 | 2 | 5.29e5 | 6.60e5 | 1.11e6 | 1.11e6 | inactive |
| CG7295 | 1 | 1.79e5 | 1.23e5 | 8.35e5 | 6.96e5 | inactive |
| rols | 1 | 7.19e5 | 6.66e5 | 2.22e6 | 2.23e6 | inactive |
| rols | 2 | 1.45e5 | 1.58e5 | 1.62e6 | 1.54e6 | inactive |
| rols | 3 | 1.32e5 | 1.47e5 | 2.00e6 | 2.10e6 | inactive |
| regucalcin | 1 | 3.18e5 | 3.83e5 | 2.49e6 | 3.27e6 | inactive |
| regucalcin | 2 | 6.08e5 | 5.22e5 | 4.48e5 | 4.38e5 | inactive |
| CG32462 + asRNA:CR43426 | 1 | 62170 | 53206 | 4.95e5 | 3.91e5 | inactive |
| CG1965 | 1 | 4.72e5 | 3.54e5 | 3.83e6 | 3.20e6 | inactive |
| CG1965 | 2 | 4.17e5 | 4.13e5 | 1.68e6 | 3.06e6 | inactive |
| CG13308 | 1 | 3.31e5 | 2.71e5 | 3.38e6 | 2.72e6 | inactive |
| msps | 1 | 83059 | 59383 | 5.72e5 | 5.44e5 | inactive |
| CG8032 | 1 | 1.36e5 | 94342 | 1.92e6 | 2.07e6 | inactive |
| CG8032 | 2 | 3.88e5 | 3.07e5 | 1.05e6 | 1.05e6 | inactive |
